Measured values: patent publication US7807384B2, “Low density lipoprotein binding proteins and their use in diagnosing and treating atherosclerosis” (Boston Heart Foundation, Inc., priority 1996, dated 2010)

B1: LBP-2: rabbit recombinant LBP-2 clone 26 (6-His tag), contains the acidic region (protein)
chain: PPPPQQPQPPPEGGAARAGGPARPVSLREVVRYLGGSSGAGGRLTRGRVQGLLEEEAAARGRLERTRLGALALPRGDRPGRAPPAASARAARNKRAGEERVLEKEEEEEEEEDDEDDDDDVVSEGSEVPESDRPAGAQHHQLNGGERGPQTAKERAKEWSLCGPHPGQEEGRGPAAGSGTRQVFSMAALSKEGGSASSTTGPDSPSPVPLPPGKPALPGADGTPFGCPAGRKEKPADPVEWTVMDVVEYFTEAGFPEQATAFQEQEIDGKSLLLMQRTDVLTGLSIRLGPALKIYEHHIKVLQQGHFEDDDPEGFLG
modifications: left off: small tags and cut ends
notes: rabbit recombinant LBP-2 clone 26 (6-His tag), contains the acidic region
B2: LBP-3: rabbit recombinant LDL binding protein LBP-3 (6-His tag), SEQ ID NO: 5 (protein, listed as Oryctolagus cuniculus)
chain: MKNQDKKNGAAKQPNPKSSPGQPEAGAEGAQGRPGRPAPAREAEGASSQAPGRPEGAQAKTAQPGALCDVSEELSRQLEDILSTYCVDNNQGAPGEDGVQGEPPEPEDAEKSRAYVARNGEPEPGTPVVNGEKETSKAEPGTEEIRTSDEVGDRDHRRPQEKKKAKGLGKEITLLMQTLNTLSTPEEKLAALCKKYAELLEEHRNSQKQMKLLQKKQSQLVQEKDHLRGEHSKAILARSKLESLCRELQRHNRSLKEEGVQRAREEEEKRKEVTSHFQMTLNDIQLQMEQHNERNSKLRQENMELAERLKKLIEQYELREEHIDKVFKHKDLQQQLVDAKLQQAQEMLKEAEERHQREKDFLLKEAVESQRMCELMKQQETHLKQQLALYTEKFEEFQNTLSKSSEVFTTFKQEMEKMTKKIKKLEKETTMYRSRWESSNKALLEMAEEKTLRDKELEGLQVKIQRLEKLCRALQTERNDLNKRVQDLSAGGQGPVSDSGPERRPEPATTSKEQGVEGPGAQVPNSPRATDASCCAGAPSTEASGQTGPQEPTTATA
modifications: 6-His tag

Test: Body weight and serum lipids of LBP-immunized apo E knockout mice
Type: in vivo, mouse
Conditions: small sample size, large variability
Protocol: Four week old apo E knockout mice (Jackson Laboratories, Bar Harbor, Me.) were ear tagged, randomly assigned to different cages and weighed. Body weights were determined weekly. Animals were allowed to habituate for 1 week. Normal rodent chow was provided ad libitum and animals were maintained in a 12:12 light:dark cycle. The following four groups of mice were treated with either recombinant LBP proteins (40 μg of recombinant protein/mouse) plus RIBI adjuvant or RIBI adjuvant alone (control group).
Blood samples were analyzed for total cholesterol, HDL cholesterol, and triglyceride concentration with a commercially available total cholesterol and triglycerides assay kits (Sigma; St. Louis Mo.) using an ELISA format. HDL concentration was determined after Apo B containing lipoproteins were precipitated using heparin/MnCl2.
Data were analyzed using T-tests and Wilcoxons.

| Molecule | Effect of immunization on total cholesterol, HDL cholesterol or triglycerides concentration |
| --- | --- |
| B1 | did not appear to |
| B2 | did not appear to |
